From patent publication US20250188110A1, “SPECIFIC SMALL MOLECULE INHIBITORS THAT BLOCK KMT9 METHYLTRANSFERASE ACTIVITY AND FUNCTION” (ALBERT-LUDWIGS-UNIVERSITÄT FREIBURG, priority 2021, published 2025) come the findings set out here.

Chains of the proteins cited; added tags and fusions are not shown. Residues count along the entry.
UniProt Q9Y5N5, whole entry: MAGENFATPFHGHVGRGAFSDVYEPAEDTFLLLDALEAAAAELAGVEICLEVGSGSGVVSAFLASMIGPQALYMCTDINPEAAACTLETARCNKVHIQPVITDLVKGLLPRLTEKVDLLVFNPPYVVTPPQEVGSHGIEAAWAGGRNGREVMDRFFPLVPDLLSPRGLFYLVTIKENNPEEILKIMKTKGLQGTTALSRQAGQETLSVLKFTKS
UniProt Q9UI30, 1-120 isoform 2 partner: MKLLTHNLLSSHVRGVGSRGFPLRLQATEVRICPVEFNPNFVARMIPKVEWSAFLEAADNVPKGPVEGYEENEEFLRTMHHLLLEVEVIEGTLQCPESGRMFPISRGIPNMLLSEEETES

SMILES strings stand for the structures. Read-outs that look alike come from different tables or passages of the source. The match of structure and compound is tentative.

One assay concerns PC3M cells. The experiment in a line: Inhibition of cell viability, MTT assay, PC3M. Conditions: for in vivo (MTT, PC3M Cells), cell viability effect: 7 days. How it is done:
Inhibition of cell viability (“in vivo (MTT, PC3M cells)”)
MTT assays were performed with the CellTiter 96 Non-Radioactive Cell Proliferation Assay (MTT) kit (G4000, Promega) according to the manufacturer's instructions. Briefly, 100 μl of cell culture medium containing inhibitor were dispensed per well into 96-well tissue culture dishes and allowed to equilibrate for 30 min at room temperature. 100 μl of cell suspension were added per well (resulting in 300 cells per well). Cells were allowed to adhere for 30 min at room temperature and then incubated at 37° C. (5% CO2) in a CellXpert incubator (Eppendorf). After 4 days, the medium was replaced with 100 μl of fresh cell culture medium containing inhibitor followed by incubation for additional 3 days. At the end of the culture period, 15 μl of Dye Solution per well were added, the plate incubated for 4 hours at 37° C. followed by addition of 100 μl of Solubilization Solution/Stop Mix per well and incubation for 1 hour at 37° C. Finally, the content of the 96-well dish was homogenized by pipetting up and down and assayed at 570 nm and 650 nm using a NanoQuant Infinite M200 Pro plate reader (TECAN). Absorption at 650 nm (background) was substracted from absorption at 570 nm and the resulting values were normalized to those of the DMSO control.
For the results of the cell viability assay shown as “in vivo (MTT, PC3M Cells)” in Table 1 “###” represents an effect at less than or equal to 1 μM; “##” represents an effect at greater than 1 μM and less than or equal to 3 μM; “#” represents an effect at greater than 3 μM.
Background: Formazan colour is commonly taken as a measure of viable cells.

The subject of another assay is Cal29 cells. The experiment in a line: Inhibition of cell proliferation, X-Celligence RTCA, Cal29. The note with it: for in vivo (Cal29 Cells), anti-proliferation effect: 5000 cells/well. The protocol: Cell proliferation was determined using X-Celligence RTCA system (Roche). For real-time recording of HT-1376, resp. Cal29 cell proliferation, 5000 cells/well were seeded in 16 well E-plates (Roche). Cells were seeded in the presence of DMSO or the tested compound of formula (I) as indicated in Table 124 h before seeding in E-plates. Cell indices were automatically recorded every 15 minutes. Relative velocities represent the change of the cell index over time.
For the results of the HT-1376, resp. Cal29 cell proliferation assay shown as “in vivo (HT-1376 Cells)” and “in vivo (Cal29 Cells)” in Table 1, “***” represents an anti-proliferation effect at less than or equal to 10 μM; “**” represents an anti-proliferation effect at greater than 10 µM and less than or equal to 30 μM; “*” represents an anti-proliferation effect at greater than 30 µM and less than or equal to 100 μM.

The target of assay [1] is T1, KMT9 (Homo sapiens, UniProt Q9Y5N5). The experiment in a line: KMT9 methyltransferase inhibition assay, MTaseGlo luminescence (from entry 155). The note with it: 100 nM KMT9, 5 μM ETF1, 1 μM SAM. How it is done:
For the compounds from entry 155 on in Table 1, the following procedure was used to determine IC50 values: The assay was carried out in white, opaque 384-well OptiPlates (PerkinElmer). For IC50 determination, a 2.5x substrate mix (final assay concentrations: 5 μM ETF1, 1 μM SAM and 1x MTaseGlo Reagent), a 2.5x KMT9 solution (final assay concentration 100 nM) and a 5x inhibitor stock 1:1 dilution series (concentration according to the desired range; dilution series was prepared in assay buffer containing 10% DMSO to obtain a final DMSO concentration of 2% in the assay) were prepared. 2 μL of 5x inhibitor stock and 4 μL of 2.5x KMT9 were pipetted, the plate was spun down at 700 rpm for 1 min using a Hettich UNIVERSAL 320 centrifuge and incubated at room temperature (around 25° C.) for 15 min. The reaction was initiated by adding 4 μL of 2.5x substrate mix, the plate was spun down as described before and incubated at 30° C. for 2 h. Afterwards, 10 μL of 2× MTaseGlo Detection solution was added, the plate was centrifuged as described above and incubated for 60 min at room temperature. Luminescence was measured using a PerkinElmer EnVision 2102 Multilabel Reader. Calculation of inhibition and data fitting was carried out as for entries 1-154. described above.
For the results of the methyltransferase inhibition assay shown as “Inhibition” in Table 1, “I” represents an IC50 less than 0.1 μM, “II” represents an IC50 equal or higher than 0.1 μM and less than 1 μM, “III” represents an IC50 equal or higher than 1 µM and less than 10 µM and “IV” represents an IC50 equal or higher than 10 µM

The target in assay [2] is T1, KMT9. The assay is described as follows: Microscale thermophoresis (MST) KMT9 binding. The protocol: To determine the binding affinity of the compounds according to the present invention and KMT9, microscale thermophoresis (MST) analysis was performed with a NanoTemper Monolith NT.115 instrument (NanoTemper Technologies GmbH). KMT9 was labelled with a RED-Tris-NTA labelling kit (NanoTemper Technologies GmbH) based on the manufacturer's instructions. Buffer including 25 mM HEPES (pH 7.5), 100 mM NaCl, 1 mM DTT and 0.05% Tween was used for the reaction buffer. Varying concentrations of the tested compounds of formula (I) as indicated in Table 1 were titrated against His-tag labelled KMT9 proteins (20 nM). Samples were loaded into standard Capillaries (NanoTemper Technologies GmbH) and MST measurements were performed using 40% MST power and 100% LED power. For each set of binding experiments, MST measurement was carried out with Binding Affinity module in MO.Control program under Nano-RED Excitation. Datasets were processed with the MO.Affinity Analysis software (NanoTemper Technologies GmbH).
For the results of the microscale thermophoresis (MST) assay shown as “MST” in Table 1, “A” represents a Kd of equal to or less than 10 nM (Kd≤10 nM); “B” represents a Kd of greater than 10 nM and equal to or less than 100 nM (10 nM<Kd<100 nM); “C” represents a Kd of greater than 100 nM and equal to or less than 1000 nM (100 nM<Kd ≤ 1000 nM); “D” represents a Kd of greater than 1000 nM (1000 nM<Kd).
(In general: In MST a laser heats a spot of the sample, and binding alters the fluorescence response.)

For assay [3], the target named is T1, KMT9. The assay is described as follows: KMT9 thermal shift assay (SyproOrange). How it is done:
The assay was carried out in 96-well Hard-Shell PCR plates (Bio-Rad Laboratories Inc.). Assay buffer consisted of 50 mM BTP, 1 mM MgCl2 and 1 mM DTT at a pH of 8.5 (adjusted using 1 M HCl and 1 M NaOH). 20X inhibitor stock (in DMSO), 2X enzyme stock and 4X SyproOrange (SO) stock (both in assay buffer) were prepared. 1 μL of 20X compound, 4 μL of assay buffer, 10 μL of 2X KMT9 and 5 μL of 4X SO were pipetted. For the no-compound control, 20X inhibitor stock was replaced by DMSO. The final volume was 20 μL. The plate was spun down at 700 rpm for 1 min using a Hettich UNIVERSAL 320 centrifuge and incubated at 25° C., shaking at 600 rpm. After incubation, the plate was spun down for 1 min at 700 rpm and measurement was conducted using a CFX96 Touch Real-Time PCR Detection System (Bio-Rad Laboratories Inc.). The plate was equilibrated at 20° C. for 4 min and then heated stepwise at a rate of 1° C. per 15 s until 95° C. After every step, fluorescence was measured in FRET mode. Calculation of melting points was conducted by a Boltzman sigmoidal model using GraphPad Prism 7.0.
For the results of the thermal shift assay shown as “Thermal shift” in Table 1, “++++” represents a ΔTm of greater 20 K, “+++” represents a ΔTm of greater than 15 K and less than or equal to 20 K (15 K<ΔTm≤20 K); “++” represents a ΔTm of greater than 10 K and less than or equal to 15 K (10 K<ΔTm ≤ 15 K); “+” represents a ΔTm of equal to or less than 10 K (ΔTm≤10 K).

The target in assay [4] is T1, KMT9. The experiment in a line: KMT9 methyltransferase inhibition assay, 3H-SAM scintillation (entries 1-154). Conditions: read-out: Inhibition; entries 1-154: 3H-SAM assay, 25 nM KMT9, 5 μM ETF1; tested form: TFA salt. How it is done:
The assay was carried out in 0.5 mL Eppendorf tubes in duplicates. Assay buffer consisted of 50 mM BTP, 1 mM MgCl2, 1 mM DTT and 0.01% Triton-X^100 at a pH of 8.5 (adjusted using 1 M HCl and 1 M NaOH). 20X inhibitor stock (in DMSO), 2X enzyme stock and 4X substrate mix (both in assay buffer) were prepared. The substrate mix consisted of Tritium-labelled S-adenosylmethionine (3H-SAM), S-adenosylmethionine (SAM) and eukaryotic peptide chain release factor subunit1 (Homo sapiens, residues 140-275)(ETF1). Final assay concentrations were set to 25 nM KMT9, 0.3 μM 3H-SAM, 0.7 µM SAM and 5 μM ETF1. […] 5 μL of 4x substrate mix was added to initiate the reaction. The final reaction volume was 20 μL. For the positive control, the compound of formula (I) was replaced by DMSO; for the negative control, the compound of formula (I) was replaced by DMSO and KMT9 was replaced by assay buffer. The reaction mix was incubated in an Eppendorf thermomixer comfort at 30° C. for 2 h, shaking at 300 rpm. The reaction was quenched using 5 μL 50% trichloroacetic acid (TCA) and incubated at 25° C. for 5 minutes. […] The scintillation signal was measured for 3x 1 min using TriCarb 2910 TR (Perkin Elmer) scintillation counter in 3H CPM mode (LL: 0, UL: 18.6). Inhibition was calculated using the following formula: […]

[5] abbreviates: read-out: Inhibition (IC50), MTaseGlo procedure (entries from 155).
Where [6] appears, read: read-out: MST (Kd), His-tag labelled KMT9 20 nM.

For `O=S(=O)(c1ccccc1)n1ccc(-c2cn([C@@H]3C[C@H](CNCCCNCCc4ccccc4)[C@@H](O)[C@H]3O)c3nc(Cl)ncc23)n1`, the “In vivo (MTT, PC3M Cells)” value with PC3M cells (MTT viability effect concentration class) is “## (an effect at greater than 1 μM and less than or equal to 3 μM)”. For the same compound, the “In vivo (Cal29 Cells)” value with Cal29 cells (anti-proliferation effect concentration class) is reported as “*** (an anti-proliferation effect at less than or equal to 10 μM)”. The IC50 on KMT9 [1] (read-out: Inhibition, IC50 class, MTaseGlo procedure (entries from 155 on)) lay in the range of 100 to 1000 nM. In addition, the Kd on KMT9 [2] (read-out: MST, His-tag labelled KMT9 20 nM, Kd class) is under 10 nM. Further, the Thermal shift result on KMT9 [3] (ΔTm class, 500 uM compound, 2 μM KMT9) is “+++ (a ΔTm of greater than 15 K and less than or equal to 20 K (15 K<ΔTm≤20 K))”.
For the compound `Nc1nc(Cl)nc2c1c(-c1nccs1)cn2[C@@H]1C[C@H](C2CCN(CCc3ccccc3)CC2)[C@@H](O)[C@H]1O`, the “in vivo (Cal29 Cells), anti-proliferation effect” value in the assay on Cal29 cells was “** (an anti-proliferation effect at greater than 10 UM and less than or equal to 30 μM)”. Besides, the IC50 on KMT9 [1] (setting [5]) lay within 100 to 1000 nM. In addition, the Kd on KMT9 [2] (setting [6]) was under 10 nM. Also, the “Thermal shift (ΔTm)” value on KMT9 [3] (500 µM compound, 2 μM KMT9) is “+++ (a ΔTm of greater than 15 K and less than or equal to 20 K (15 K<ΔTm≤20 K))”.
In the case of `CCNC(=O)NCCCNC(=O)[C@H]1O[C@@H](n2cnc3c(N)ncnc32)[C@H](O)[C@@H]1O` [307 (206), (2S,3S,4R,5R)-5-(6-amino-9H-purin-9-yl)-N-(3-(3-ethylureido)propyl)-3,4-dihydroxytetrahydrofuran-2-carboxamide], the IC50 on KMT9 [4] was over 10000 nM. Also, the Kd at KMT9 [2] (read-out: MST, microscale thermophoresis, His-tag labelled KMT9 (20 nM), tested form: TFA salt) was over 1000 nM. Further, the Thermal shift result on KMT9 [3] (ΔTm, 500 µM compound, 2 μM KMT9, 5X SO, tested form: TFA salt) is listed as “+ (a ΔTm of equal to or less than 10 K (ΔTm≤10 K))”.
In the case of `Nc1ncnc2c1ccn2[C@@H]1C[C@H](C2CCNCC2)[C@@H](O)[C@H]1O`, on KMT9 [1] (read-out: Inhibition, IC50 class, MTaseGlo procedure (entries from 155 on), tested form: TFA), the IC50 lay within 1000 to 10000 nM. Also, the Kd at KMT9 [2] (read-out: MST, His-tag labelled KMT9 20 nM, Kd class, tested form: TFA) was 100 to 1000 nM. Moreover, the Thermal shift result at KMT9 [3] (ΔTm class, 500 uM compound, 2 μM KMT9, tested form: TFA) is “++ (a ΔTm of greater than 10 K and less than or equal to 15 K (10 K<ΔTm ≤ 15 K))”.
For `Nc1nc(Cl)nc2c1c(-c1nccs1)cn2[C@@H]1C[C@H](C2CCN(Cc3ccccc3)CC2)[C@@H](O)[C@H]1O`, the “in vivo (MTT, PC3M Cells), cell viability effect” value in the assay on PC3M cells is “## (an effect at greater than 1 μM and less than or equal to 3 μM)”. In addition, the “in vivo (Cal29 Cells), anti-proliferation effect” value in the assay with Cal29 cells is “** (an anti-proliferation effect at greater than 10 UM and less than or equal to 30 μM)”. In addition, the IC50 on KMT9 [1] (setting [5]) lay within 100 to 1000 nM. In addition, the Kd on KMT9 [2] (setting [6]) was under 10 nM. Besides, at KMT9 [3] (500 µM compound, 2 μM KMT9), the “Thermal shift (ΔTm)” value is “++++ (a ΔTm of greater 20 K)”.
With `Nc1nc(Cl)nc2c1c(-c1ccn(Cc3ccccc3)n1)cn2[C@@H]1C[C@H](C2CCN(CC3CCCC3)CC2)[C@@H](O)[C@H]1O`, the “in vivo (MTT, PC3M Cells), cell viability effect” value with PC3M cells was “## (an effect at greater than 1 μM and less than or equal to 3 μM)”. Further, the IC50 on KMT9 [1] (setting [5]) is 100 to 1000 nM. For the same compound, the Kd on KMT9 [2] (setting [6]) was under 10 nM. In addition, the “Thermal shift (ΔTm)” value at KMT9 [3] (500 µM compound, 2 μM KMT9) is on record as “++++ (a ΔTm of greater 20 K)”.
